# Library screen at single concentrations

The values are deposited in ChEMBL (CHEMBL3988442, “University of Dundee, Small-Polar-MMV Screening Library” (2021)).

Mtb glucose medium: 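Phenotypic screen: M. tuberculosis growth, glucose 7H9 medium, 3 days; the read-out is not stated. Concentration: 50 µM. Higher reads as more growth inhibition (inferred: compounds with an IC50 in retests scored well above the rest). Of about 69,000 compounds tested this way, about 760 (1.1%) reached 50% or more in at least one test.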
Mtb cholesterol medium: 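Phenotypic screen: M. tuberculosis growth, cholesterol and DPPC medium, 4 days; the read-out is not stated. Compounds at 50 µM. Higher reads as more growth inhibition (inferred: compounds with an IC50 in retests scored well above the rest). Of about 69,000 compounds tested this way, about 370 (0.54%) reached 50% or more in at least one test.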

Values are the deposited “Percent Effect”, in %.
How 0% and 100% were set is not recorded. Most values in the screen are low, and negative values occur.
This is an unselected part of the compounds tested.
Two or more numbers in one place are separate tests of the same structure; such repeats can differ widely.

| structure | Mtb glucose medium | Mtb cholesterol medium |
|---|---|---|
| `Cc1ccc(SCC2CNc3nc4ccccc4c(=O)n32)c(C)c1` (stereo not given) | -16.98% | -11.88% |
| `Oc1nnc(-c2cccs2)c2sc(N3CCCC3)nc12` | -9.973% | 9.324% |
| `CC1CCc2[nH]c(=O)c(C(=O)N3CCc4ccccc4C3)cc2C1` (stereo not given) | 3.257% | -3.352% |
| `CN1CCCN(C[C@@H]2CN(C(=O)N3CCOCC3)C[C@@H]2CO)CC1` | -11.12% | 5.841% |
| `Cc1c(C(=O)N2CC(C)(C)C2(C)C)nnn1-c1cccc2cnccc12` | -26.17% | -1.43% |
| `COc1ccc(CCN)cc1-c1ccc(C(N)=O)cc1` | 46.25% | 2.492% |
| `O=C(NCc1ccccc1F)N1CCC(C2OCCO2)CC1` | -1.018% & -1.784% | -24.37% |
| `CCN1CCN(C(=O)CCn2cccc2)CC1` | 15.63% | -5.208% |
| `COCC1CN(C(=O)Cc2cccs2)Cc2nnn(C)c21` (stereo not given) | 8.082% | -9.512% |
| `O=C(NCc1ccnc(OCC(F)(F)F)c1)NCC1COCCO1` (stereo not given) | 8.372% & 5.954% | -28.97% |
| `CC(C)N(C)[C@@H]1CCN(Cc2ccoc2)[C@H]1Cc1ccccc1` | 0.2905% & 4.087% | 11.95% |
| `[H][C@]12CC[C@]([H])(CN(C(=O)c3ccc(C(C)=O)s3)C1)N(Cc1ccccc1)C2` | -3.66% | -28.49% |
| `CN(CC1(C)COC1)C(=O)c1cc(-c2cnn(C)c2)nc2ccccc12` | 0.5813% | 18.49% & 74.68% |
| `CN(C)CC(=O)N1CCCCC1c1nc(N)ncc1-c1ccccc1` (stereo not given) | 3.628% | -11.77% |
| `O=C(NCCCn1nc2ccccn2c1=O)NC1CCC(O)CC1` (stereo not given) | -15.22% & -32.44% | -36.59% |
| `O=C(O)[C@@H]1CN(C(=O)CN2Cc3ccccc3C2)C[C@H]1c1ccncc1` | -8.34% | -5.098% |
| `CC(=O)NCCCC(=O)NC1(c2ccc(Cl)c(Cl)c2)CC1` | 1.341% & -14.84% | 1.061% |
| `CC(NC(=O)NCCCN(C)S(C)(=O)=O)c1cccc(Cl)c1` (stereo not given) | -12.1% | -12.22% |
| `c1cnnc(N2CCCC(NCc3nc(-c4cccs4)no3)C2)c1` (stereo not given) | -15.62% & 13.32% | -0.4426% |
| `Cc1cc(C)nc(Nc2ccc(C3CCCCN3)cn2)n1` (stereo not given) | -26.49% | -25.6% |
| `CCCS(=O)(=O)N1CCC2(CN(c3cnn(C)c3)C(=O)CN2C)C1.O=C(O)C(F)(F)F` (stereo not given) | -25.33% | 1.349% & -30.52% |
| `[H][C@@]12C[C@H](C)O[C@@]1([H])CCN(C(=O)c1occc1C)C2` | 20.58% & -5.756% | -11.29% |
| `O=C(c1ccc(NC2CC2)nc1)N1CCCC(n2cccn2)C1` (stereo not given) | -14.32% | -5.926% |
| `Cc1cc2c(cc1NC(N)=O)OCO2` | -7.703% & -13.85% | -32.68% |
| `Cn1cnc(S(=O)(=O)N2CCCC2)c1Cl` | 0.7529% & 1.957% | 0.1064% |
| `CC(C)(C)CNC[C@H]1Cn2c(-c3ccccc3)cnc2CO1` | -10.49% & -5.343% | -14.78% |
| `O=C(Nc1ccc(-c2cnc(NCCO)nc2)cc1)[C@@H]1CCCCN1` | 28.68% | -2.315% |
| `Cn1ccnc1CN1CCN(c2ccc(C#N)cc2F)CC1` | 20.41% | 1.789% |
| `O=C1CCCN1CCC1CCCCN1C(=O)c1ccc(SCCO)cc1` (stereo not given) | -34.89% | -7.611% |
| `CSc1ncccc1C(=O)Nc1ccc(Cn2ccccc2=O)cc1` | -32.58% | 6.97% |
| `COC(=O)C(NC(=O)Nc1ccc(C(C)=O)cc1)C(C)C` (stereo not given) | 29.37% | 7.141% |
| `CN1CCC(Oc2ccc(NC(=O)c3cccc(Cl)c3)cc2)CC1` | 35.41% | -4.381% |
| `c1coc(-c2nc(CNC3CCC4(CCNCC4)CC3)no2)c1` | -11.03% | -12.57% |
| `[H][C@@]12CCN(Cc3ccncc3)[C@]1([H])CC[C@@H](C(=O)N1CCCCO1)O2` | 0.9997% & -9.618% | -9.397% |
| `CN(C)CCN1CC2(CCCN(c3ncc(Cl)cc3F)C2)CCC1=O` (stereo not given) | -6.818% | -20% |
| `CC(C)CCn1ccc(NC2CCSC2)n1` (stereo not given) | 5.267% & -2.718% | -1.785% |
| `O=C(O)C(F)(F)F.O=C(O)C(F)(F)F.O=C(O)C(F)(F)F.[H][C@@]12COC[C@]1(COCc1ccncc1)CN(Cc1ccccn1)C2` | 29.29% | 5.001% |
| `Cc1cc(C)cc(OCC(=O)N2CCCN(CC(N)=O)CC2)c1` | 7.906% | -7.775% |
| `Cc1cc(C(C)(O)CNC(=O)C2(C)CCCC2)c(C)o1` (stereo not given) | -4.832% & -3.976% | 2.707% |
| `O=C(NC(Cc1ccsc1)c1nccs1)C1CCOCC1` (stereo not given) | 4.708% | -2.174% |
| `Cc1nc(CN2CCCC(N(C)Cc3nnc(C4CC4)o3)C2)no1` (stereo not given) | -8.615% | -5.253% |
| `CCn1nc2c(cc1=O)CN(CCOc1ccccc1C#N)CC2` | 4.011% | -7.028% |
| `O=C1CC(c2ncc(-c3ccc4c(c3)OCCO4)[nH]2)CN1C1CC1` (stereo not given) | 18.42% | -12.67% |
| `CCC(C)CN(C)C(=O)NCc1ccccc1-n1cccn1` (stereo not given) | 8.866% | -8.309% |
| `O=C(CCOc1cccc(Cl)c1)N1CCN(c2cnccn2)CC1` | 4.331% | -4.653% |
| `CCNC(=O)C1CCN(Cn2nc(-c3ccccc3)oc2=O)CC1` | -1.687% & 14.08% | -26.86% |
| `c1cc(CN2CCOCC3(CCN(C4CCOCC4)C3)C2)ccn1` (stereo not given) | -22.34% | -11.72% |
| `O=C1NCCN1CCNc1cc(-c2ccncc2)nc2ccnn12` | 10.13% | 9.64% |
| `CC1CC(=O)c2cc(C(=O)N3CCOCC3)c(=O)[nH]c2C1` (stereo not given) | 0.7298% | -12.89% |
| `COc1c(CNC2(c3noc(C)n3)CCC2)c(C(C)C)nn1C.Cl` | -1.033% | -8.106% |
| `OC(COCc1cccs1)Cn1cc(Br)cn1` (stereo not given) | 7.768% & 12.93% | 0.2778% |
| `Cc1cc(C2CCCN2C(=O)NCc2c(C)cc(C)[nH]c2=O)on1` (stereo not given) | -10.49% | 9.772% |
| `COCCNC(=O)c1nc(-c2cn(C)cn2)n2ccccc12` | -5.093% | -8.547% |
| `CCN(C(C)=O)C(c1cccnc1)c1cc(C)cc(C)c1` (stereo not given) | 26.59% & 2.259% | 12.21% |
| `Cc1cc(C)c2ncc(C#N)c(N3CCS(=O)(=O)CC3)c2c1` | -14.31% | -10.11% |
| `CNS(=O)(=O)CCCn1nnc(-c2ccc(F)c(C)c2)n1` | 30.27% | 37.34% & 4.073% |
| `O=C(CSC1CCc2ccccc2NC1=O)NC1CC1` (stereo not given) | -11.97% | -48.7% |
| `CSCC(CCO)NC(=O)Nc1cccc(Br)c1C` (stereo not given) | -23.99% | 27.75% |
| `O=C(Cc1cccs1)N1CCCCC1c1ccn2ccnc2n1` (stereo not given) | 23.34% | 23.32% |
| `CCOCC(=O)Nc1cc(C)cnc1OC` | 13.94% & 0.000218% | -15.7% |
| `CCN(Cc1ccoc1)Cc1nc(COC)no1` | 7.253% | -10.26% |
| `COc1cccc(OCc2cc(C(=O)NC[C@@H]3CCCN3)n[nH]2)c1` | 9.262% | -9.845% |
| `Nc1nc2c(c(=O)[nH]1)CCN(C(=O)c1cccc3nccnc13)C2` | -9.61% | -20.99% |
| `O=c1[nH]nc2n1CCN(S(=O)(=O)c1ccccc1Cl)C2` | 0.176% | 15.87% |
| `Cc1nnc(CNC(=O)CC2CCc3ccccc32)o1` (stereo not given) | -59.3% | -35.94% |
| `O=C(COc1ccc(Cl)cc1)N1CCOCC1c1ncon1` (stereo not given) | 8.947% | -9.459% |
| `O=C(O)C(F)(F)F.O=C(O)C(F)(F)F.[H][C@@]12CN(CC3CCOCC3)CCO[C@]1([H])CN(Cc1ccc(C)s1)C2` | -3.134% & -13.74% | 11.29% |
| `CN1CCOC(CNCc2cccc(OCC(F)(F)F)c2)C1` (stereo not given) | -11.49% | 4.054% |